Values from PubChem BioAssay AID1224830 (NIAID, 2016).
Assay: 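Genes whose knock-down alters the TNF-alpha reporter response to LPS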 (primary screen). Cells: human THP-1 monocytic leukaemia cells, TNF dual-luciferase reporter clone, PMA-differentiated to macrophage-like cells. Knock-down reagent: siRNA pool against human genes, 50 nM. Timing: LPS for 4 h, given about 3 days after siRNA transfection. Challenge: bacterial LPS (TLR4 ligand), 10 ng/ml. Measurement: 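TNF firefly reporter luminescence divided by renilla, normalised to the plate median, then turned into a robust z-score for each replicate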. Scale: TNF reporter robust z-score: higher = stronger TNF reporter response to LPS. Rule for the call: 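a well is active when its z-score exceeds 2.8 or falls below -1.5; control wells carry no call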.
This is a random part of about 18,000 reagents. About 2,900 of them (16%) count as active. 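Calls are made per well; low scores hint the gene aids the LPS response, high scores that it dampens it.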 Repeated entries: four replicate wells of each siRNA pool.

| Gene | TNF reporter robust z-score | Call |
| --- | --- | --- |
| CNOT11 (CCR4-NOT transcription complex subunit 11) | -0.95 | inactive |
| CNOT11 (CCR4-NOT transcription complex subunit 11) | -0.72 | inactive |
| CNOT11 (CCR4-NOT transcription complex subunit 11) | -0.84 | inactive |
| CNOT11 (CCR4-NOT transcription complex subunit 11) | -1.47 | inactive |
| ADAMTS13 (ADAM metallopeptidase with thrombospondin type 1 motif 13) | -0.99 | inactive |
| ADAMTS13 (ADAM metallopeptidase with thrombospondin type 1 motif 13) | 0.11 | inactive |
| ADAMTS13 (ADAM metallopeptidase with thrombospondin type 1 motif 13) | -0.57 | inactive |
| ADAMTS13 (ADAM metallopeptidase with thrombospondin type 1 motif 13) | 1.54 | inactive |
| CBLN1 (cerebellin 1 precursor) | -0.88 | inactive |
| CBLN1 (cerebellin 1 precursor) | -0.49 | inactive |
| CBLN1 (cerebellin 1 precursor) | -0.02 | inactive |
| CBLN1 (cerebellin 1 precursor) | 0.4 | inactive |
| GIN1 (gypsy retrotransposon integrase 1) | 0.8 | inactive |
| GIN1 (gypsy retrotransposon integrase 1) | 0.64 | inactive |
| GIN1 (gypsy retrotransposon integrase 1) | 0.33 | inactive |
| GIN1 (gypsy retrotransposon integrase 1) | 0.61 | inactive |
| ZNF654 (zinc finger protein 654) | -0.66 | inactive |
| ZNF654 (zinc finger protein 654) | 0.61 | inactive |
| ZNF654 (zinc finger protein 654) | 0.94 | inactive |
| ZNF654 (zinc finger protein 654) | -0.92 | inactive |
| TP53 (tumor protein p53) | -1.03 | inactive |
| TP53 (tumor protein p53) | -0.37 | inactive |
| TP53 (tumor protein p53) | -0.57 | inactive |
| TP53 (tumor protein p53) | 0.06 | inactive |
| DMAC2 (distal membrane arm assembly component 2) | 0.33 | inactive |
| DMAC2 (distal membrane arm assembly component 2) | 1.01 | inactive |
| DMAC2 (distal membrane arm assembly component 2) | 0.55 | inactive |
| DMAC2 (distal membrane arm assembly component 2) | 0.72 | inactive |
| CAMKK2 (calcium/calmodulin dependent protein kinase kinase 2) | -0.27 | inactive |
| CAMKK2 (calcium/calmodulin dependent protein kinase kinase 2) | -0.04 | inactive |
| CAMKK2 (calcium/calmodulin dependent protein kinase kinase 2) | -0.13 | inactive |
| CAMKK2 (calcium/calmodulin dependent protein kinase kinase 2) | -0.7 | inactive |
| SETD6 (SET domain containing 6, protein lysine methyltransferase) | 1.72 | inactive |
| SETD6 (SET domain containing 6, protein lysine methyltransferase) | 1.42 | inactive |
| SETD6 (SET domain containing 6, protein lysine methyltransferase) | 0.92 | inactive |
| SETD6 (SET domain containing 6, protein lysine methyltransferase) | 0.5 | inactive |
| MAP3K7CL (MAP3K7 C-terminal like) | -0.42 | inactive |
| MAP3K7CL (MAP3K7 C-terminal like) | 0.04 | inactive |
| MAP3K7CL (MAP3K7 C-terminal like) | -0.23 | inactive |
| MAP3K7CL (MAP3K7 C-terminal like) | -0.16 | inactive |
| DNASE2B (deoxyribonuclease 2 beta) | 1.37 | inactive |
| DNASE2B (deoxyribonuclease 2 beta) | 0.68 | inactive |
| DNASE2B (deoxyribonuclease 2 beta) | 0.39 | inactive |
| DNASE2B (deoxyribonuclease 2 beta) | -0.06 | inactive |
| COX6B1 (cytochrome c oxidase subunit 6B1) | 0.44 | inactive |
| COX6B1 (cytochrome c oxidase subunit 6B1) | 0.43 | inactive |
| COX6B1 (cytochrome c oxidase subunit 6B1) | 0.4 | inactive |
| COX6B1 (cytochrome c oxidase subunit 6B1) | 0.88 | inactive |
| MAVS (mitochondrial antiviral signaling protein) | 0.38 | inactive |
| MAVS (mitochondrial antiviral signaling protein) | -0.39 | inactive |
| MAVS (mitochondrial antiviral signaling protein) | 1.09 | inactive |
| MAVS (mitochondrial antiviral signaling protein) | 1.48 | inactive |
| AMDHD1 (amidohydrolase domain containing 1) | 1.39 | inactive |
| AMDHD1 (amidohydrolase domain containing 1) | 1.76 | inactive |
| AMDHD1 (amidohydrolase domain containing 1) | 2.16 | inactive |
| AMDHD1 (amidohydrolase domain containing 1) | 2.01 | inactive |
| SETMAR (SET and mariner transposase domain methyltransferase) | -0.76 | inactive |
| SETMAR (SET and mariner transposase domain methyltransferase) | -0.96 | inactive |
| SETMAR (SET and mariner transposase domain methyltransferase) | -1 | inactive |
| SETMAR (SET and mariner transposase domain methyltransferase) | -0.85 | inactive |
| EXT2 (exostosin glycosyltransferase 2) | -1.32 | inactive |
| EXT2 (exostosin glycosyltransferase 2) | -1.26 | inactive |
| EXT2 (exostosin glycosyltransferase 2) | -1.18 | inactive |
| EXT2 (exostosin glycosyltransferase 2) | -1.35 | inactive |
| CXCR5 (C-X-C motif chemokine receptor 5) | 1.73 | inactive |
| CXCR5 (C-X-C motif chemokine receptor 5) | -1 | inactive |
| CXCR5 (C-X-C motif chemokine receptor 5) | -1.15 | inactive |
| CXCR5 (C-X-C motif chemokine receptor 5) | -0.36 | inactive |
| KIF21B (kinesin family member 21B) | -1.14 | inactive |
| KIF21B (kinesin family member 21B) | -1.17 | inactive |
| KIF21B (kinesin family member 21B) | -1.38 | inactive |
| KIF21B (kinesin family member 21B) | -0.77 | inactive |
| SNX25 (sorting nexin 25) | 0.64 | inactive |
| SNX25 (sorting nexin 25) | 0.75 | inactive |
| SNX25 (sorting nexin 25) | 0.1 | inactive |
| SNX25 (sorting nexin 25) | 0.06 | inactive |
| YIF1B | -1.97 | active |
| YIF1B | -1.22 | inactive |
| YIF1B | -1.07 | inactive |
| YIF1B | -1.27 | inactive |
| PCDHB13 (protocadherin beta 13) | -0.35 | inactive |
| PCDHB13 (protocadherin beta 13) | -0.12 | inactive |
| PCDHB13 (protocadherin beta 13) | -0.14 | inactive |
| EPHA4 (EPH receptor A4) | -0.34 | inactive |
| EPHA4 (EPH receptor A4) | 0.92 | inactive |
| EPHA4 (EPH receptor A4) | -0.49 | inactive |
| EPHA4 (EPH receptor A4) | 0.28 | inactive |
| PSMB8 (proteasome 20S subunit beta 8) | -0.28 | inactive |
| PSMB8 (proteasome 20S subunit beta 8) | 0.17 | inactive |
| PSMB8 (proteasome 20S subunit beta 8) | -1.72 | active |
| PSMB8 (proteasome 20S subunit beta 8) | -0.66 | inactive |
| ZNF566 (zinc finger protein 566) | 0.95 | inactive |
| ZNF566 (zinc finger protein 566) | 0.26 | inactive |
| ZNF566 (zinc finger protein 566) | -0.04 | inactive |
| ZNF566 (zinc finger protein 566) | 0.32 | inactive |
| RPL22 (ribosomal protein L22) | 0.72 | inactive |
| RPL22 (ribosomal protein L22) | 1.02 | inactive |
| RPL22 (ribosomal protein L22) | -0.13 | inactive |
| RPL22 (ribosomal protein L22) | 0.52 | inactive |
| GM2A (ganglioside GM2 activator) | -1.15 | inactive |
| GM2A (ganglioside GM2 activator) | -1.02 | inactive |
| GM2A (ganglioside GM2 activator) | 0.47 | inactive |
| GM2A (ganglioside GM2 activator) | -1.1 | inactive |
| PTDSS2 (phosphatidylserine synthase 2) | -0.53 | inactive |
| PTDSS2 (phosphatidylserine synthase 2) | -0.29 | inactive |
| PTDSS2 (phosphatidylserine synthase 2) | -0.9 | inactive |
| PTDSS2 (phosphatidylserine synthase 2) | 0.5 | inactive |
| METTL26 (methyltransferase like 26) | -0.78 | inactive |
| METTL26 (methyltransferase like 26) | 0.16 | inactive |
| METTL26 (methyltransferase like 26) | -0.48 | inactive |
| METTL26 (methyltransferase like 26) | -0.4 | inactive |
| ZCCHC14 (zinc finger CCHC-type containing 14) | -0.24 | inactive |
| ZCCHC14 (zinc finger CCHC-type containing 14) | 1.56 | inactive |
| ZCCHC14 (zinc finger CCHC-type containing 14) | 1.41 | inactive |
| ZCCHC14 (zinc finger CCHC-type containing 14) | 3.39 | active |
| CIDEB (cell death inducing DFFA like effector b) | -0.88 | inactive |
| CIDEB (cell death inducing DFFA like effector b) | -0.82 | inactive |
| CIDEB (cell death inducing DFFA like effector b) | -1.11 | inactive |
| CIDEB (cell death inducing DFFA like effector b) | -0.22 | inactive |
| OSGEPL1 (O-sialoglycoprotein endopeptidase like 1) | -0.22 | inactive |
| OSGEPL1 (O-sialoglycoprotein endopeptidase like 1) | 1.15 | inactive |
| OSGEPL1 (O-sialoglycoprotein endopeptidase like 1) | 0.47 | inactive |
| OSGEPL1 (O-sialoglycoprotein endopeptidase like 1) | -0.69 | inactive |
| SRCIN1 (SRC kinase signaling inhibitor 1) | -0.66 | inactive |
| SRCIN1 (SRC kinase signaling inhibitor 1) | -0.76 | inactive |
| SRCIN1 (SRC kinase signaling inhibitor 1) | -1.05 | inactive |
| SRCIN1 (SRC kinase signaling inhibitor 1) | -0.57 | inactive |
| FHL3 (four and a half LIM domains 3) | -0.26 | inactive |
| FHL3 (four and a half LIM domains 3) | 0.31 | inactive |
| FHL3 (four and a half LIM domains 3) | 0.03 | inactive |
| FHL3 (four and a half LIM domains 3) | -0.17 | inactive |
| NDUFB6 (NADH:ubiquinone oxidoreductase subunit B6) | – | inactive |
| NDUFB6 (NADH:ubiquinone oxidoreductase subunit B6) | -1.07 | inactive |
| NDUFB6 (NADH:ubiquinone oxidoreductase subunit B6) | -1.01 | inactive |
| NDUFB6 (NADH:ubiquinone oxidoreductase subunit B6) | -0.93 | inactive |
| NDUFB6 (NADH:ubiquinone oxidoreductase subunit B6) | -1.29 | inactive |
| SIPA1 (signal-induced proliferation-associated 1) | 0.09 | inactive |
| SIPA1 (signal-induced proliferation-associated 1) | 0.78 | inactive |
| SIPA1 (signal-induced proliferation-associated 1) | -0.28 | inactive |
| SIPA1 (signal-induced proliferation-associated 1) | -0.63 | inactive |

Records listed so far called active:
| Gene | TNF reporter robust z-score | Call |
| --- | --- | --- |
| YIF1B | -1.97 | active |
| PSMB8 (proteasome 20S subunit beta 8) | -1.72 | active |
| ZCCHC14 (zinc finger CCHC-type containing 14) | 3.39 | active |
